The text below walks through data of article PMC7819943, “Rice protein-binding microarrays: a tool to detect cis-acting elements near promoter regions in rice”.

Protein sequences, listed by entry. Tags and fused reporters are not part of them.
UniProt Q0JBA9, entry or part of it: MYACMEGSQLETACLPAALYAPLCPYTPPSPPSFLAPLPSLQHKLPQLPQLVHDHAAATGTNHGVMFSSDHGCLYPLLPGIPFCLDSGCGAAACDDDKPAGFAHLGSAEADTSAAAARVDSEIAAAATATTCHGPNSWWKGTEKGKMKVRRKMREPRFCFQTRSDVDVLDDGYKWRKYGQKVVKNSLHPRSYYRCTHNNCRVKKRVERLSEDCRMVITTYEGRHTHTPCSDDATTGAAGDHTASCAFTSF

The list shows a part of the results.

The target of the experiment is OsWRKY34 (Oryza sativa, UniProt Q0JBA9 1-250). As to the kind of experiment: protein-binding microarray (RPBM); PBS, 2% BSA, 51.3 ng/ul salmon testes DNA, 50 uM zinc acetate, 200 nM TF, 25 C, 1 h; high values mean tight binding. The conditions noted are these: protein: recombinant; tags: N-terminal polyhistidine and DsRed monomer fusion (pET32a); label: CyDye5-dUTP incorporated in the synthesized complementary strand; 3' TTTTT single-stranded linker to array surface; dsDNA, one strand shown. In outline:
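Binding signal is reported as fluorescence intensity per feature (arbitrary units) from an Axon 4000B scanner. Incubation used 200 nM of each Ni–NTA-purified, N-terminally polyhistidine- and DsRed-fused transcription factor from E. coli BL21-CodonPlus on a double-stranded custom Agilent array for 1 h at 25 °C, with 50 µM zinc acetate in the buffer, followed by washing.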
As for “GGCAGCCATCACGTCGTCACCGCGTCATGTCATCACCTACCGGAGTCACCTAGTGCAG”, the binding signal was 9560 fluorescence intensity (a.u.).
Turning to “TCCTCATCAGTCATCATAGTCTCATTTTTTCGCTTATACTCGGAGTCACCTAGTGCAG”, the binding signal is 11700 fluorescence intensity (a.u.).
Consider “ATCGTTCTCGGCGGCGATCACCTTAGTCAGCCTCTGCTTCCGGAGTCACCTAGTGCAG”, for which the binding signal is 8060 fluorescence intensity (a.u.).
Turning to “CTGATGACTCACCCTTTTTTGCGTATATTCTCTTTTCCCCCGGAGTCACCTAGTGCAG”, the binding signal was 8960 fluorescence intensity (a.u.).
For “AAAACATGGTACAAATGCATACGCTCACACATGCACACTCCGGAGTCACCTAGTGCAG”, the binding signal was 8300 fluorescence intensity (a.u.).
As to “ATTTGCTCGACGTGCTATATATATAAGTGCCCATTTCTTTCGGAGTCACCTAGTGCAG”, the binding signal was 8530 fluorescence intensity (a.u.).
In the case of “AAACCCCTGGCTGCTTCTCAGTGCTTCTTGCTGGCTTCATCGGAGTCACCTAGTGCAG”, the binding signal is 9590 fluorescence intensity (a.u.).
For the sequence “GCACACGGAAAACGCCGTCCAGTCCAACCTCCCATTTTTCCGGAGTCACCTAGTGCAG”, the binding signal was 15600 fluorescence intensity (a.u.).
For the sequence “CAATGTGTATGTATCTTCTTCGCAGCGAAACAAGTCGTCTCGGAGTCACCTAGTGCAG”, the binding signal is 8550 fluorescence intensity (a.u.).
With “ATACTAATCTCGTGAAATTTCACGTTCTCGCTGTCACAAACGGAGTCACCTAGTGCAG”, the binding signal is 12100 fluorescence intensity (a.u.).
Consider “ACCACCCATATCCGCTACCATCTTTCTTCTACTGCCTCTGCGGAGTCACCTAGTGCAG”, for which the binding signal is 12500 fluorescence intensity (a.u.).
Under “CCTGATATATCTGTTTTCGACAGCCCATTACTGTTTCTTGCGGAGTCACCTAGTGCAG” stands 9100 fluorescence intensity (a.u.); under “TGTTGAATTCTTGGGGTTGATGTGAATTGATTGAAGTCTCCGGAGTCACCTAGTGCAG”, 9590 fluorescence intensity (a.u.); under “CCACGTCGATTCGTTGGTCATTGCAAACTCTATATATACTCGGAGTCACCTAGTGCAG”, 8360 fluorescence intensity (a.u.).
Under “TTGGCGCGCGGTTGGTGGGGCGGTGGTGGTGGTGGTGCCTCGGAGTCACCTAGTGCAG” stands 17400 fluorescence intensity (a.u.); under “TTGGTCGCATTTCGGGTGGTGGTGGTGGTGGTGGTGGTGGCGGAGTCACCTAGTGCAG”, 13200 fluorescence intensity (a.u.); under “ACCACCACTCCATCTCCATTGCTGCAAACTACAAGCCGCCCGGAGTCACCTAGTGCAG”, 10400 fluorescence intensity (a.u.).
For the sequence “GGACTCTCCTTTCCTTTTCTAATTTTGGATTTTATTTTATCGGAGTCACCTAGTGCAG”, the binding signal is 8980 fluorescence intensity (a.u.).
With “ACATAACACAGACTCACATTGCCTACGCCGAAATGTTACACGGAGTCACCTAGTGCAG”, the binding signal is 8560 fluorescence intensity (a.u.).
Regarding “GAAGGGTTTTTGGGTTTCGCCGCGTCACTAGGTTTTGTGGCGGAGTCACCTAGTGCAG”, the binding signal was 8520 fluorescence intensity (a.u.).
Turning to “GCTGGCATATGTATCCCTTACACATCATCACCCAGTGTTCCGGAGTCACCTAGTGCAG”, the binding signal is 10800 fluorescence intensity (a.u.).
“GGCTGCCAACTTCCATTCTCCATCCACCCAATTAATACAGCGGAGTCACCTAGTGCAG”: the binding signal is 8770 fluorescence intensity (a.u.).
Under “ACTACGTTTAATACTTCAAATGTGTCTCTGTATATCCGATCGGAGTCACCTAGTGCAG” stands 8760 fluorescence intensity (a.u.).
Consider “CGTTCGCTCGCTCGCTCGCTCGCCTCCAGATCTGGAGGCGCGGAGTCACCTAGTGCAG”, for which the binding signal was 8750 fluorescence intensity (a.u.).
“CGTCCTCTTGTACCGGCAGTTCGTCTGCTGCTCCGCGAAGCGGAGTCACCTAGTGCAG”: the binding signal was 8200 fluorescence intensity (a.u.).
With “GGGTGGTGCACTCCATTCCAGTCCACACTCCGCGCTCCCGCGGAGTCACCTAGTGCAG”, the binding signal is 8090 fluorescence intensity (a.u.).
The result for “GTAGCAATAGATCCCGTTGTGTAGCTGCCCTCTATTGTTTCGGAGTCACCTAGTGCAG” reads 9790 fluorescence intensity (a.u.); that for “TCTCTGTTCTTGCCTTCGCTAGCCAGATCTAACGCACTCACGGAGTCACCTAGTGCAG”, 9510 fluorescence intensity (a.u.); that for “CACACACGCACCATTTACCCCATAATTGTTTTCTGAGTAACGGAGTCACCTAGTGCAG”, 10300 fluorescence intensity (a.u.).
Regarding “GCTGCACCTGTTGTGGTGCCATCATCTGTTCCTATGCCTTCGGAGTCACCTAGTGCAG”, the binding signal was 9390 fluorescence intensity (a.u.).
“TACTCGTATTATGGCACCCACCTATATTATTCAAATATTTCGGAGTCACCTAGTGCAG”: the binding signal was 8750 fluorescence intensity (a.u.).
“TCCACCCGCCGCCACGCTCGCCCTATGCTTTTCTGCCCGCCGGAGTCACCTAGTGCAG”: the binding signal is 9440 fluorescence intensity (a.u.).
As for “TTTGTTATTACTAGCACCGGGCAATATTTTCTCCATTTTGCGGAGTCACCTAGTGCAG”, the binding signal is 8940 fluorescence intensity (a.u.).
With “AAGAATTCAGAGTCAAATTTCTCAGCCACCTCGCCTATATCGGAGTCACCTAGTGCAG”, the binding signal was 8660 fluorescence intensity (a.u.).
For “CATATATATTGTTGGGGAGGTTGCAAAGTGCAAAAAATTACGGAGTCACCTAGTGCAG”, the binding signal was 10500 fluorescence intensity (a.u.).
Regarding “ACATGATGCCTCTAGCATGTTATCGCGTTACTGGTATGTTCGGAGTCACCTAGTGCAG”, the binding signal was 8570 fluorescence intensity (a.u.).
Under “TTGCAAACACACACACATTCATCTCTCCCTTTTTTACCACCGGAGTCACCTAGTGCAG” stands 9200 fluorescence intensity (a.u.).
As to “CTATCTATCATCTCTTCTACTGGTAAATATCGGCACATATCGGAGTCACCTAGTGCAG”, the binding signal is 8030 fluorescence intensity (a.u.).
Take “CATATACTTCATCTTTTTTTCCTTGGTATCGTCAACTCCCCGGAGTCACCTAGTGCAG”: the binding signal was 9960 fluorescence intensity (a.u.).
“AAATTACTTCGTCCAGTTTTTAATACACGGCAGCGTCGTTCGGAGTCACCTAGTGCAG”: the binding signal was 8040 fluorescence intensity (a.u.).
“ACAACGCATTTCCATTTCTACTCTGCCCCTGGTAAATTACCGGAGTCACCTAGTGCAG”: the binding signal was 12400 fluorescence intensity (a.u.).
Turning to “ACAAGTATCGCAACTGTTTGACTCAGGCCACATCTCCACTCGGAGTCACCTAGTGCAG”, the binding signal was 8430 fluorescence intensity (a.u.).
